# Test results: patent US11746085B2, “Triphenylsulfonium salt compound, and uses thereof” (Changzhou Tronly Advanced Electronic Materials Co., Ltd., priority 2018, dated 2023)
# Experiments:
# [1] = Acid production rate test (UV irradiation of acetonitrile solution, KOH titration); settings: Table 4; 0.02 mmol/g acetonitrile solution, 200 mj/cm^2 cumulative energy at 0.8 mw/cm^2, ultraviolet lamp FL10BL, titrated with 0.05N KOH in ethanol
# [2] = Photosensitivity test: minimum exposure amount to form the resist pattern in an exemplary photoresist; settings: Table 4; 20 μm photoresist coating, 1 part by mass photoinitiator, line i exposure, 10 μm line pattern; lower value = higher photosensitivity
Compound,Acid production rate [1],Minimum exposure amount [2]
CC(C)c1ccc([S+](c2ccc(-c3ccc([S+](c4ccc(C(C)C)c(F)c4)c4ccc(C(C)C)c(F)c4)cc3)cc2)c2ccc(C(C)C)c(F)c2)cc1F [Compound C-19],78%,140 mj/cm^2
Cc1ccc([S+](c2ccccc2)c2ccc(Sc3ccc([S+](c4ccccc4)c4ccc(C)c(C(F)(F)F)c4)cc3)cc2)cc1C(F)(F)F (stereo not drawn) [Compound C-20],75%,170 mj/cm^2
Cc1ccc([S+](c2ccc(C)c(F)c2)c2ccc3c(c2)Cc2cc([S+](c4ccc(C)c(F)c4)c4ccc(C)c(F)c4)ccc2-3)cc1F [Compound C-21],80%,130 mj/cm^2
CCCCC1(CCCC)c2cc([S+](c3ccc(C)c(F)c3)c3ccc(C)c(F)c3)ccc2-c2ccc([S+](c3ccc(C)c(F)c3)c3ccc(C)c(F)c3)cc21 [Compound C-22],78%,140 mj/cm^2
Cc1ccc([SH](c2ccc(C)c(F)c2)c2ccc3c(c2)oc2cc([SH](c4ccc(C)c(F)c4)c4ccc(C)c(F)c4)ccc23)cc1F [Compound C-23],77%,150 mj/cm^2
Cc1ccc([S+](c2ccc(C)c(F)c2)c2ccc3c(c2)sc2cc([S+](c4ccc(C)c(F)c4)c4ccc(C)c(F)c4)ccc23)cc1F [Compound C-24],77%,150 mj/cm^2
CCn1c2cc([SH](c3ccc(C)c(C(F)(F)F)c3)c3ccc(C)c(C(F)(F)F)c3)ccc2c2ccc([SH](c3ccc(C)c(C(F)(F)F)c3)c3ccc(C)c(C(F)(F)F)c3)cc21 [Compound C-25],75%,170 mj/cm^2
"Fc1cccc([S+](c2ccccc2)c2ccc(Sc3ccc([S+](c4ccccc4)c4cccc(F)c4)cc3)cc2)c1 [Compound D-1, reference compound]",74%,180 mj/cm^2
"Cc1ccc([S+](c2ccccc2)c2ccc(Sc3ccc([S+](c4ccccc4)c4ccc(C)cc4)cc3)cc2)cc1 [Compound D-2, reference compound]",49%,More than 300 mj/cm^2
